Assay [1] has as its target T1, recombinant human EphA5 (rhEphA5) antigen (Homo sapiens, UniProt P54756). Nature of the assay: SPR (Biacore T200), multi-cycle kinetics, IgG captured on anti-human IgG chip, human EphA5 as analyte. (In general: Surface plasmon resonance follows binding to a sensor surface in real time, without labels.)
The target of assay [2] is T1, recombinant human EphA5 (rhEphA5) antigen. Put plainly: SPR (Biacore T200), single cycle kinetics, IgG captured on anti-human IgG CM5 chip, rhEphA5 as analyte.
The target is the same in assay [3]. Put plainly: Biacore T200 multi-cycle kinetics, purified IgG captured, recombinant EphA5 as analyte.
For assay [4] the target is unchanged. Nature of the assay: Biacore T200 multi-cycle kinetics, purified IgG captured on anti-human IgG CM5 chip, recombinant EphA5 as analyte.
Assay [5] has the same target. Nature of the assay: Biacore T200 single cycle kinetics, IgG from HEK supernatant captured on anti-human IgG CM5 chip, human EphA5 as analyte.
The target is the same in assay [6]. Put plainly: SPR (Biacore T200), multi-cycle kinetics, IgG captured on anti-human IgG chip, human EphA5 as analyte [continued].

Sequences of proteins named here, by UniProt entry; tags and fusion partners are left off. A change or cut given only in a name is not applied to a line headed by its entry.
UniProt P54756: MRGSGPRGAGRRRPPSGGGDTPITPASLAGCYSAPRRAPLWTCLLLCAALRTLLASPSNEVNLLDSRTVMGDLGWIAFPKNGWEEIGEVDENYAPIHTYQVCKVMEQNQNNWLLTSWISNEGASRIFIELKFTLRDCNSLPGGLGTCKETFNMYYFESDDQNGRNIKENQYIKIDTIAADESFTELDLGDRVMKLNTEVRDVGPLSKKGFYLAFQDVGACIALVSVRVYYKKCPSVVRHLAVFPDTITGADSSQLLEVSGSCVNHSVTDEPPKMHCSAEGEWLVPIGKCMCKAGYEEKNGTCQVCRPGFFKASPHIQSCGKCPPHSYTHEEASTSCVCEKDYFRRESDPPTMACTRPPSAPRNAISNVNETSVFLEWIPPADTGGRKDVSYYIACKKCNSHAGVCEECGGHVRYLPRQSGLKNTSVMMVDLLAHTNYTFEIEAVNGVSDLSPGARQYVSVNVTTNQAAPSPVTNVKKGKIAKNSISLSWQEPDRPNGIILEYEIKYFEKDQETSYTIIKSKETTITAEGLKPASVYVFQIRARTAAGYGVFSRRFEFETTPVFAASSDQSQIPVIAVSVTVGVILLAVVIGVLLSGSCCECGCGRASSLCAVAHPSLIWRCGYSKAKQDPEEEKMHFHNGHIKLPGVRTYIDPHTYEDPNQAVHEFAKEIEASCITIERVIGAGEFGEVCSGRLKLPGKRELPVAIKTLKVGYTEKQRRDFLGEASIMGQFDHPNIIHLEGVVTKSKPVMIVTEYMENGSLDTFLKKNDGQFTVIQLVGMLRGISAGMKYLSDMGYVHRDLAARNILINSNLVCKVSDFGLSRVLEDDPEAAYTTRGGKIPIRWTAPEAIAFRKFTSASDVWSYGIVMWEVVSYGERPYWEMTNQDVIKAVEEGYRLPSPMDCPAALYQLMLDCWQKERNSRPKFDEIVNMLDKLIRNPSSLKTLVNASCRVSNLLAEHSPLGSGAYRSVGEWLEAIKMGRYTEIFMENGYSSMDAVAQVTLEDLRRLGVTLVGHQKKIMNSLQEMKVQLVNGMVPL

No constants are given. Whether binding was seen depends on the method and setting. Some binding calls cover weakened binding; strength is not graded here.

B1: chimeric antibody VH0/VK0 (murine 11C12 variable regions, human IgG1 and kappa constant regions) (antibody, V domains shown)
VH: EVTLKESGGGLVQPGGSRKLSCAASGFTFSTFGIHWVRQAPEKGLEWVAYISGASTTIYYADTVKGRFTISRDNPKNTLFLQMTSLRSEDTAMYYCARYGTSFPYGLDYWGQGTSVTVSS
VL: DIVMTQSPGSLAVSLGQRATISCKASQSVDYDGDSYMNWYQQKPGQPPKLLIYGASNLESGIPARFSGSGSGTDFTLNIHPVEEEDAASYYCQQSNEDPFTFGSGTKLEIKR
For the molecule B1, the binding entry in assay [1] and in assay [2] was “binds” throughout.

B2: VH4/VK4 (antibody, human IgG1, kappa, V domains shown)
VH: EVQLVESGGGLVQPGGSLKLSCAASGFTFSTFGIHWVRQAPGKGLEWVAYISGASTTIYYADTVKGRFTISRDNSKNTLYLQMNSLRAEDTAVYYCARYGTSFPYGLDYWGQGTLVTVSS
VL: DIVMTQSPDSLAVSLGERATINCKSSQSVDYDGDSYMNWYQQKPGKAPKLLIYGASNLESGIPDRFSGSGSGTDFTLTISRLEPEDAASYYCQQSNEDPFTFGQGTKLEIKR
On to B2, for which the binding entry in assay [3], in assay [1], in assay [4], in assay [5] and in assay [2] was “binds” in each case.

B3: VH6/VK1 (antibody, human IgG1, kappa, V domains shown)
VH: EVQLVESGGGLVQPGGSLKLSCAASGFTFSTFGIHWVRQAPGKGLEWVASISGASTTIYYADSVKGRFTISRDNSKNTLYLQMNSLRAEDTAVYYCARYGTSFPYGLDYWGQGTLVTVSS
VL: DIVMTQSPGSLAVSLGERATINCKASQSVDYDGDSYMNWYQQKPGKAPKLLIYGASNLESGIPDRFSGSGSGTDFTLTISRLEEEDAASYYCQQSNEDPFTFGQGTKLEIKR
As for B3, the binding entry in assay [5] and in assay [2] was “binds” in each case.

B4: VH5/VK1 (antibody, human IgG1, kappa, V domains shown)
VH: EVQLVESGGGLVQPGGSLKLSCAASGFTFSTFGIHWVRQAPGKGLEWVAYISGASTTIYYADSVKGRFTISRDNSKNTLYLQMNSLRAEDTAVYYCARYGTSFPYGLDYWGQGTLVTVSS
VL: DIVMTQSPGSLAVSLGERATINCKASQSVDYDGDSYMNWYQQKPGKAPKLLIYGASNLESGIPDRFSGSGSGTDFTLTISRLEEEDAASYYCQQSNEDPFTFGQGTKLEIKR
As to B4, the binding entry in assay [5] and in assay [2] was “binds” throughout.

B5: VH4/VK1 (antibody, human IgG1, kappa, V domains shown)
VH: EVQLVESGGGLVQPGGSLKLSCAASGFTFSTFGIHWVRQAPGKGLEWVAYISGASTTIYYADTVKGRFTISRDNSKNTLYLQMNSLRAEDTAVYYCARYGTSFPYGLDYWGQGTLVTVSS
VL: DIVMTQSPGSLAVSLGERATINCKASQSVDYDGDSYMNWYQQKPGKAPKLLIYGASNLESGIPDRFSGSGSGTDFTLTISRLEEEDAASYYCQQSNEDPFTFGQGTKLEIKR
B5: the binding entry in assay [5] and in assay [2] was “binds” each time.

B6: VH4/VK5 (antibody, human IgG1, kappa, V domains shown)
VH: EVQLVESGGGLVQPGGSLKLSCAASGFTFSTFGIHWVRQAPGKGLEWVAYISGASTTIYYADTVKGRFTISRDNSKNTLYLQMNSLRAEDTAVYYCARYGTSFPYGLDYWGQGTLVTVSS
VL: DIVMTQSPDSLAVSLGERATINCKSSQSVDYDGDSYMNWYQQKPGKAPKLLIYGASNLESGIPDRFSGSGSGTDFTLTISRLEPEDAAVYYCQQSNEDPFTFGQGTKLEIKR
Take B6: the binding entry in assay [5] and in assay [2] was “binds” each time.

B7: VH4/VK2 (antibody, human IgG1, kappa, V domains shown)
VH: EVQLVESGGGLVQPGGSLKLSCAASGFTFSTFGIHWVRQAPGKGLEWVAYISGASTTIYYADTVKGRFTISRDNSKNTLYLQMNSLRAEDTAVYYCARYGTSFPYGLDYWGQGTLVTVSS
VL: DIVMTQSPDSLAVSLGERATINCKASQSVDYDGDSYMNWYQQKPGKAPKLLIYGASNLESGIPDRFSGSGSGTDFTLTISRLEPEDAASYYCQQSNEDPFTFGQGTKLEIKR
Turning to B7, the binding result in assay [5] and in assay [2] was “binds” throughout.

B8: VH5/VK2 (antibody, human IgG1, kappa, V domains shown)
VH: EVQLVESGGGLVQPGGSLKLSCAASGFTFSTFGIHWVRQAPGKGLEWVAYISGASTTIYYADSVKGRFTISRDNSKNTLYLQMNSLRAEDTAVYYCARYGTSFPYGLDYWGQGTLVTVSS
VL: DIVMTQSPDSLAVSLGERATINCKASQSVDYDGDSYMNWYQQKPGKAPKLLIYGASNLESGIPDRFSGSGSGTDFTLTISRLEPEDAASYYCQQSNEDPFTFGQGTKLEIKR
With B8, the binding result in assay [6], in assay [3], in assay [4], in assay [5] and in assay [2] was “binds” in each case.

B9: VH6/VK5 (antibody, human IgG1, kappa, V domains shown)
VH: EVQLVESGGGLVQPGGSLKLSCAASGFTFSTFGIHWVRQAPGKGLEWVASISGASTTIYYADSVKGRFTISRDNSKNTLYLQMNSLRAEDTAVYYCARYGTSFPYGLDYWGQGTLVTVSS
VL: DIVMTQSPDSLAVSLGERATINCKSSQSVDYDGDSYMNWYQQKPGKAPKLLIYGASNLESGIPDRFSGSGSGTDFTLTISRLEPEDAAVYYCQQSNEDPFTFGQGTKLEIKR
As for B9, the binding result in assay [5] and in assay [2] was “binds” throughout.

B10: VH5/VK5 (antibody, human IgG1, kappa, V domains shown)
VH: EVQLVESGGGLVQPGGSLKLSCAASGFTFSTFGIHWVRQAPGKGLEWVAYISGASTTIYYADSVKGRFTISRDNSKNTLYLQMNSLRAEDTAVYYCARYGTSFPYGLDYWGQGTLVTVSS
VL: DIVMTQSPDSLAVSLGERATINCKSSQSVDYDGDSYMNWYQQKPGKAPKLLIYGASNLESGIPDRFSGSGSGTDFTLTISRLEPEDAAVYYCQQSNEDPFTFGQGTKLEIKR
For B10, the binding entry in assay [5] and in assay [2] was “binds” in each case.

B11: VH5/VK4 (antibody, human IgG1, kappa, V domains shown)
VH: EVQLVESGGGLVQPGGSLKLSCAASGFTFSTFGIHWVRQAPGKGLEWVAYISGASTTIYYADSVKGRFTISRDNSKNTLYLQMNSLRAEDTAVYYCARYGTSFPYGLDYWGQGTLVTVSS
VL: DIVMTQSPDSLAVSLGERATINCKSSQSVDYDGDSYMNWYQQKPGKAPKLLIYGASNLESGIPDRFSGSGSGTDFTLTISRLEPEDAASYYCQQSNEDPFTFGQGTKLEIKR
B11: the binding entry in assay [6], in assay [3], in assay [4], in assay [5] and in assay [2] was “binds” throughout.

B12: VH6/VK2 (antibody, human IgG1, kappa, V domains shown)
VH: EVQLVESGGGLVQPGGSLKLSCAASGFTFSTFGIHWVRQAPGKGLEWVASISGASTTIYYADSVKGRFTISRDNSKNTLYLQMNSLRAEDTAVYYCARYGTSFPYGLDYWGQGTLVTVSS
VL: DIVMTQSPDSLAVSLGERATINCKASQSVDYDGDSYMNWYQQKPGKAPKLLIYGASNLESGIPDRFSGSGSGTDFTLTISRLEPEDAASYYCQQSNEDPFTFGQGTKLEIKR
For B12, the binding result in assay [5] and in assay [2] was “binds” in each case.

B13: VH6/VK4 (antibody, human IgG1, kappa, V domains shown)
VH: EVQLVESGGGLVQPGGSLKLSCAASGFTFSTFGIHWVRQAPGKGLEWVASISGASTTIYYADSVKGRFTISRDNSKNTLYLQMNSLRAEDTAVYYCARYGTSFPYGLDYWGQGTLVTVSS
VL: DIVMTQSPDSLAVSLGERATINCKSSQSVDYDGDSYMNWYQQKPGKAPKLLIYGASNLESGIPDRFSGSGSGTDFTLTISRLEPEDAASYYCQQSNEDPFTFGQGTKLEIKR
Regarding B13, the binding result in assay [5] and in assay [2] was “binds” in each case.

B14: VH6/VK3 (antibody, human IgG1, kappa, V domains shown)
VH: EVQLVESGGGLVQPGGSLKLSCAASGFTFSTFGIHWVRQAPGKGLEWVASISGASTTIYYADSVKGRFTISRDNSKNTLYLQMNSLRAEDTAVYYCARYGTSFPYGLDYWGQGTLVTVSS
VL: DIVMTQSPDSLAVSLGERATINCKASQSVDYDGDSYMNWYQQKPGKAPKLLIYGASNLESGIPDRFSGSGSGTDFTLTISRLEPEDAAVYYCQQSNEDPFTFGQGTKLEIKR
As to B14, the binding result in assay [5] and in assay [2] was “binds” in each case.

The values above are taken from US20260216365A1, “ANTIBODY-DRUG CONJUGATES AGAINST THE RECEPTOR TYROSINE KINASE EPHA5” (Rutgers, The State University of New Jersey, priority 2021, published 2026).
